# Data published in paper PMC3229512.
# Construct, isoform or probe ends are uncertain for at least one entry.
# System: WC-1 (WHITE COLLAR-1) + WC-2 (WHITE COLLAR-2)
# Test: EMSA
# Conditions: 0.1 ug poly(dI-dC), 0.5 ul rabbit serum, recombinant protein, label: 32P-dCTP end label
sequence,measurement,setting,value
GGGCGTCCTGATGCCGCTGCAAGACCGATGACGCTGCAAAATTGAGATCTA / GGGTAGATCTCAATTTTGCAGCGTCATCGGTCTTGCAGCGGCATCAGGACG [frq C-box probe],binding signal (fraction of binding in light),"dark, 1 mM H2O2, binding induced, 2-fold less than in light, 1 mM FAD; 20 mM HEPES pH 7.9, 1 mM EDTA, 2 mM MgCl2, 10% glycerol, 20 uM ZnCl2; dialysis buffer had 40 mM KCl)",0.5
same,binding result,"light, 30 min, 1 mM FAD; 20 mM HEPES pH 7.9, 1 mM EDTA, 2 mM MgCl2, 10% glycerol, 20 uM ZnCl2; dialysis buffer had 40 mM KCl)",binds
